The values below come from patent US11230581B2, “Peptides and combination of peptides for use in immunotherapy against ovarian cancer and other cancers” (Immatics Biotechnologies GmbH, priority 2015, dated 2022).

For some assays here: Expression grades refer to the transcript from which the peptide derives; gene names, where given, were looked up from the sequence.

One series relates to ovarian cancer samples. The series is described as follows: Relative LC-MS quantitation of HLA-presented peptides: presentation and over-presentation on ovarian cancer vs a panel of normal tissues (presentation score). More on the design: species or system human; key: +++: very highly over-presented on tumors compared to a panel of normal tissues; ++: highly over-presented on tumors compared to a panel of normal tissues; +: over-presented on tumors compared to a panel of normal tissues. As to conditions: over-presentation on tumors compared to a panel of normal tissues.

The test system of series [1] is source genes of the peptides (mRNA) in ovarian cancer vs normal tissues. Put plainly: Expression profiling of genes encoding the peptides (RNAseq, expression score). More on the design: species or system human; key: +++: very highly over-expressed in tumors compared to a panel of normal tissues; ++: highly over-expressed in tumors compared to a panel of normal tissues; +: over-expressed in tumors compared to a panel of normal tissues. The following applies: source gene over-expression in tumors compared to a panel of normal tissues.

A further series has as its system additional tumor types. Put plainly: LC-MS detection and over-presentation of the peptides on additional tumor types, cell lines and primary cultures. More on the design: species or system human. As to conditions: for Other relevant organs/ cancerous diseases: Table 4A: additional tumor types on which the peptide was found, over-presented on more than 5% of measured tumor samples, or presented on more than 5% with ratio of geometric means tumor vs normal tissues larger than 3.

Where [2] appears, read: additional tumor types with over-presentation on more than 5% of the measured tumor samples, or presentation on more than 5% with ratio of geometric means tumor vs normal tissues larger than 3.

“81: peptide found in NUP205 (gene looked up) (FLFSQLQYL; listed as Homo sapiens) [compound 81]”: the “Peptide Presentation (presentation score)” value (shortened to “Peptide Presentation”) in the series with ovarian cancer samples was “+++”. Moreover, in series [1], the “Gene Expression (expression score)” value is “+”. Also, the Additional organs/cancerous diseases result in the series on additional tumor types (amendment of Table 4: additional tumor types showing over-presentation (including specific presentation) on more than 5% of measured tumor samples, or presentation on more than 5% with ratio of geometric means tumor vs normal tissues larger than 3) is “Gallbladder Cancer and Bile Duct Cancer, AML”.

“116: peptide found in IDO1 (gene looked up) (YHIDEEVGF; listed as Homo sapiens) [compound 116]”: the “Peptide Presentation” value in the series on ovarian cancer samples is on record as “+++”. Besides, the “Gene Expression (expression score)” value in series [1] is given as “+++”.

Consider “258: peptide found in NCAPD2 (gene looked up) (ELAERVPAI; listed as Homo sapiens) [compound 258]”, for which the “Gene Expression (expression score)” value in series [1] is on record as “++”. For the same substance, the “Other relevant organs/ cancerous diseases” value with additional tumor types is “Esophageal Cancer”. For the same substance, the Additional organs/cancerous diseases result in the series with additional tumor types (setting [2]) is “CLL, Urinary Bladder Cancer, Gallbladder Cancer and Bile Duct Cancer, AML, NHL, HNSCC”.

In the case of “339: peptide found in HDGF (gene looked up) (GLWEIENNPTVKA; listed as Homo sapiens) [compound 339]”, in series [1], the “Gene Expression (expression score)” value is recorded as “+”. Moreover, the “Other relevant organs/ cancerous diseases” value in the series with additional tumor types was “HCC, Melanoma, Endometrium”. Moreover, in the series on additional tumor types (setting [2]), the Additional organs/cancerous diseases result was “Gallbladder Cancer and Bile Duct Cancer”.

For “371: peptide found in RNF213 (gene looked up) (FLQAHLHTA; listed as Homo sapiens) [compound 371]”, the “Gene Expression (expression score)” value in series [1] is “++”. Moreover, the “Other relevant organs/ cancerous diseases” value in the series with additional tumor types is “BrCa”.

Take “426: peptide found in NCAPD2 (gene looked up) (RLADKSVLV; listed as Homo sapiens) [compound 426]”: the “Gene Expression (expression score)” value in series [1] is reported as “+”. The “Other relevant organs/ cancerous diseases” value with additional tumor types is “Colon, Rectum”. In addition, the Additional organs/cancerous diseases entry in the series on additional tumor types (setting [2]) is on record as “BRCA, AML”.

As for “484: peptide found in KIF15 (gene looked up) (SLIEKVTQL; listed as Homo sapiens) [compound 484]”, the “Gene Expression (expression score)” value in series [1] is recorded as “+++”. Besides, in the series with additional tumor types, the “Other relevant organs/ cancerous diseases” value was “HCC”. In addition, the Additional organs/cancerous diseases result in the series with additional tumor types (setting [2]) is given as “SCLC, CRC, CLL, BRCA, Melanoma, Esophageal Cancer, Urinary Bladder Cancer, Uterine Cancer, AML, NHL”.

Consider “602: peptide found in ERMP1 (gene looked up) (YLLEQIKLIEV; listed as Homo sapiens) [compound 602]”, for which the “Gene Expression (expression score)” value in series [1] is on record as “++”. Moreover, the “Other relevant organs/ cancerous diseases” value in the series on additional tumor types was “NSCLC, SCLC”.

For “603 (FLIEPEHVNTV; listed as Homo sapiens) [compound 603]”, the “Peptide Presentation” value with ovarian cancer samples was “+”. In addition, the “Other relevant organs/ cancerous diseases” value in the series with additional tumor types is “HCC, PC, Leukemia, Melanoma”. For the same substance, the Additional organs/cancerous diseases entry with additional tumor types (setting [2]) is recorded as “CLL”.

On to “606 (ALWETEVYI; listed as Homo sapiens) [compound 606]”, for which, in the series with ovarian cancer samples, the “Peptide Presentation” value was “++”. Moreover, the “Other relevant organs/ cancerous diseases” value with additional tumor types was “SCLC, Brain Cancer, HCC, PrC”.

On to “610 (LLAPTPYIIGV; listed as Homo sapiens) [compound 610]”, for which, in the series on ovarian cancer samples, the “Peptide Presentation” value is recorded as “+”. The “Other relevant organs/ cancerous diseases” value with additional tumor types is given as “NSCLC, SCLC, RCC, Brain Cancer, CRC, HCC, PrC, Leukemia, BrCa, MCC, Melanoma, Esophageal Cancer, Urinary bladder Cancer, Gallbladder Cancer, Bile Duct Cancer”.

As to “613 (RLLPPGAVVAV; listed as Homo sapiens) [compound 613]”, in the series on ovarian cancer samples, the “Peptide Presentation” value is reported as “++”. Moreover, in the series with additional tumor types, the “Other relevant organs/ cancerous diseases” value is recorded as “NSCLC, SCLC, HCC”. Moreover, the Additional organs/cancerous diseases entry with additional tumor types (setting [2]) was “CLL, BRCA, Urinary Bladder Cancer, Gallbladder Cancer and Bile Duct Cancer, HNSCC”.

Regarding “616: peptide found in TRIP13 (gene looked up) (VLIDEVESL; listed as Homo sapiens) [compound 616]”, the “Gene Expression (expression score)” value in series [1] was “++”. Further, in the series on additional tumor types, the “Other relevant organs/ cancerous diseases” value is “NSCLC, SCLC, RCC, GC, BrCa, Melanoma, Esophageal Cancer, Urinary bladder Cancer”. Besides, the Additional organs/cancerous diseases result in the series with additional tumor types (setting [2]) was “CRC, Uterine Cancer, Gallbladder Cancer and Bile Duct Cancer, AML, NHL, HNSCC”.

“618 (VLFDSESIGIYV; listed as Homo sapiens) [compound 618]”: in the series with ovarian cancer samples, the “Peptide Presentation” value was “+”. In addition, the “Other relevant organs/ cancerous diseases” value in the series with additional tumor types is on record as “SCLC, Melanoma”.

Consider “619 (ALQDRVPLA; listed as Homo sapiens) [compound 619]”, for which the “Peptide Presentation” value in the series on ovarian cancer samples was “+”. In the series with additional tumor types, the “Other relevant organs/ cancerous diseases” value is “Brain Cancer, CRC, Esophageal Cancer, Uterine Cancer”. Besides, the Additional organs/cancerous diseases entry with additional tumor types (setting [2]) was “BRCA, Gallbladder Cancer and Bile Duct Cancer”.

Turning to “625 (VVLEGASLETV; listed as Homo sapiens) [compound 625]”, the “Peptide Presentation” value with ovarian cancer samples is “+”. Moreover, the “Other relevant organs/ cancerous diseases” value in the series with additional tumor types was “SCLC, Melanoma”. Also, the Additional organs/cancerous diseases entry in the series on additional tumor types (setting [2]) was “CLL, Urinary Bladder Cancer”.

As to “626 (LLMATILHL; listed as Homo sapiens) [compound 626]”, in the series on ovarian cancer samples, the “Peptide Presentation” value is “++”. The “Other relevant organs/ cancerous diseases” value in the series with additional tumor types is on record as “SCLC, Melanoma, Urinary bladder Cancer, Gallbladder Cancer, Bile Duct Cancer”. The Additional organs/cancerous diseases entry with additional tumor types (setting [2]) was “CLL, AML, NHL, HNSCC”.

Regarding “627 (KLLETELLQEI; listed as Homo sapiens) [compound 627]”, the “Peptide Presentation” value in the series with ovarian cancer samples is “+”. The “Other relevant organs/ cancerous diseases” value in the series with additional tumor types is “NSCLC, SCLC, CRC, HCC, MCC, Melanoma”. Besides, the Additional organs/cancerous diseases entry in the series with additional tumor types (setting [2]) was “CLL, Urinary Bladder Cancer”.

As to “630 (LLSHVIVAL; listed as Homo sapiens) [compound 630]”, in the series on ovarian cancer samples, the “Peptide Presentation” value is reported as “+”. Moreover, in the series on additional tumor types, the “Other relevant organs/ cancerous diseases” value is given as “PC, Leukemia”. In addition, in the series on additional tumor types (setting [2]), the Additional organs/cancerous diseases result is “CLL, Gallbladder Cancer and Bile Duct Cancer, NHL”.

For “637 (SIYGGFLLGV; listed as Homo sapiens) [compound 637]”, the “Peptide Presentation” value in the series on ovarian cancer samples was “++”. The “Other relevant organs/ cancerous diseases” value in the series with additional tumor types is “NSCLC, SCLC, HCC, PrC, BrCa, Uterine Cancer”. For the same substance, the Additional organs/cancerous diseases result in the series on additional tumor types (setting [2]) was “Urinary Bladder Cancer, Gallbladder Cancer and Bile Duct Cancer, HNSCC”.

Take “638 (KLIQESPTV; listed as Homo sapiens) [compound 638]”: the “Peptide Presentation” value in the series with ovarian cancer samples is recorded as “+”. The “Other relevant organs/ cancerous diseases” value in the series on additional tumor types is listed as “SCLC, HCC, Prostate”. Further, in the series with additional tumor types (setting [2]), the Additional organs/cancerous diseases result was “Gallbladder Cancer and Bile Duct Cancer, AML”.

Consider “639 (SLFQNCFEL; listed as Homo sapiens) [compound 639]”, for which the “Peptide Presentation” value in the series with ovarian cancer samples is on record as “+”. In addition, the “Other relevant organs/ cancerous diseases” value in the series with additional tumor types is recorded as “Leukemia”. Moreover, the Additional organs/cancerous diseases result in the series with additional tumor types (setting [2]) is on record as “CLL, Melanoma, Uterine Cancer, NHL, HNSCC”.

As for “640 (YLFSEALNAA; listed as Homo sapiens) [compound 640]”, the “Peptide Presentation” value in the series with ovarian cancer samples is listed as “+”. In the series on additional tumor types, the “Other relevant organs/ cancerous diseases” value is “SCLC, GC, CRC, HCC, PrC, BrCa, MCC, Esophageal Cancer, Urinary bladder Cancer, Uterine Cancer, Gallbladder Cancer, Bile Duct Cancer”.
